Experimental data published in ChEMBL document CHEMBL4316593 (Eur J Med Chem, 2019).
This continues a long series; more values of the same kind are listed elsewhere.

Key:
Format in all cases: cell-based
Conditions in all cases: U-87MG ATCC
[1] = Inhibition of RTK/PI3K/AKT/mTOR signaling in human U87 cells assessed as up regulation of WDR45B gene expression at cytotoxic IC50 measured after 48 hrs relative to control
[2] = Inhibition of RTK/PI3K/AKT/mTOR signaling in human U87 cells assessed as up regulation of fibrillarin gene expression at cytotoxic IC50 measured after 48 hrs relative to control
[3] = Inhibition of RTK/PI3K/AKT/mTOR signaling in human U87 cells assessed as up regulation of Ras association domain family member 5 gene expression at cytotoxic IC50 measured after 48 hrs relative to control
[4] = Inhibition of RTK/PI3K/AKT/mTOR signaling in human U87 cells assessed as down regulation of BROX gene expression at cytotoxic IC50 measured after 48 hrs relative to control
[5] = Inhibition of RTK/PI3K/AKT/mTOR signaling in human U87 cells assessed as down regulation of CHMP5 gene expression at cytotoxic IC50 measured after 48 hrs relative to control
[6] = Inhibition of RTK/PI3K/AKT/mTOR signaling in human U87 cells assessed as down regulation of ZNF468 gene expression at cytotoxic IC50 measured after 48 hrs relative to control
[7] = Inhibition of RTK/PI3K/AKT/mTOR signaling in human U87 cells assessed as down regulation of MAPKAPK2 gene expression at cytotoxic IC50 measured after 48 hrs relative to control
[8] = Inhibition of RTK/PI3K/AKT/mTOR signaling in human U87 cells assessed as down regulation of CASP3 gene expression at cytotoxic IC50 measured after 48 hrs relative to control
[9] = Inhibition of RTK/PI3K/AKT/mTOR signaling in human U87 cells assessed as down regulation of GNA13 gene expression at cytotoxic IC50 measured after 48 hrs relative to control
[10] = Inhibition of RTK/PI3K/AKT/mTOR signaling in human U87 cells assessed as down regulation of SUPT4H1 gene expression at cytotoxic IC50 measured after 48 hrs relative to control
[11] = Inhibition of RTK/PI3K/AKT/mTOR signaling in human U87 cells assessed as down regulation of SPRTN gene expression at cytotoxic IC50 measured after 48 hrs relative to control
[12] = Inhibition of RTK/PI3K/AKT/mTOR signaling in human U87 cells assessed as down regulation of ATP5E gene expression at cytotoxic IC50 measured after 48 hrs relative to control
[13] = Inhibition of RTK/PI3K/AKT/mTOR signaling in human U87 cells assessed as down regulation of LPCAT1 gene expression at cytotoxic IC50 measured after 48 hrs relative to control
[14] = Inhibition of RTK/PI3K/AKT/mTOR signaling in human U87 cells assessed as down regulation of MAPKBP1 gene expression at cytotoxic IC50 measured after 48 hrs relative to control
[15] = Inhibition of RTK/PI3K/AKT/mTOR signaling in human U87 cells assessed as down regulation of DOPEY2 gene expression at cytotoxic IC50 measured after 48 hrs relative to control
[16] = Inhibition of RTK/PI3K/AKT/mTOR signaling in human U87 cells assessed as up regulation of SLIT-ROBO Rho GTPase activating protein 1 gene expression at cytotoxic IC50 measured after 48 hrs relative to control
[17] = Inhibition of RTK/PI3K/AKT/mTOR signaling in human U87 cells assessed as down regulation of SIRT7 gene expression at cytotoxic IC50 measured after 48 hrs relative to control
[18] = Inhibition of RTK/PI3K/AKT/mTOR signaling in human U87 cells assessed as down regulation of CTSL gene expression at cytotoxic IC50 measured after 48 hrs relative to control
[19] = Inhibition of RTK/PI3K/AKT/mTOR signaling in human U87 cells assessed as down regulation of OAZ1 gene expression at cytotoxic IC50 measured after 48 hrs relative to control
[20] = Inhibition of RTK/PI3K/AKT/mTOR signaling in human U87 cells assessed as down regulation of NOP58 gene expression at cytotoxic IC50 measured after 48 hrs relative to control
[21] = Inhibition of RTK/PI3K/AKT/mTOR signaling in human U87 cells assessed as up regulation of C14orf132 gene expression at cytotoxic IC50 measured after 48 hrs relative to control
[22] = Inhibition of RTK/PI3K/AKT/mTOR signaling in human U87 cells assessed as down regulation of STAT3 gene expression at cytotoxic IC50 measured after 48 hrs relative to control
[23] = Inhibition of RTK/PI3K/AKT/mTOR signaling in human U87 cells assessed as up regulation of cornichon family AMPA receptor auxiliary protein 1 gene expression at cytotoxic IC50 measured after 48 hrs relative to control
[24] = Inhibition of RTK/PI3K/AKT/mTOR signaling in human U87 cells assessed as down regulation of CDK12 gene expression at cytotoxic IC50 measured after 48 hrs relative to control
[25] = Inhibition of RTK/PI3K/AKT/mTOR signaling in human U87 cells assessed as up regulation of eukaryotic translation initiation factor 4B gene expression at cytotoxic IC50 measured after 48 hrs relative to control
[26] = Inhibition of RTK/PI3K/AKT/mTOR signaling in human U87 cells assessed as down regulation of SMTN gene expression at cytotoxic IC50 measured after 48 hrs relative to control
[27] = Inhibition of RTK/PI3K/AKT/mTOR signaling in human U87 cells assessed as down regulation of CAPN7 gene expression at cytotoxic IC50 measured after 48 hrs relative to control
[28] = Inhibition of RTK/PI3K/AKT/mTOR signaling in human U87 cells assessed as up regulation of DNA methyltransferase 3 beta gene expression at cytotoxic IC50 measured after 48 hrs relative to control
[29] = Inhibition of RTK/PI3K/AKT/mTOR signaling in human U87 cells assessed as up regulation of epsin 3 gene expression at cytotoxic IC50 measured after 48 hrs relative to control
[30] = Inhibition of RTK/PI3K/AKT/mTOR signaling in human U87 cells assessed as down regulation of LATS2 gene expression at cytotoxic IC50 measured after 48 hrs relative to control
[31] = Inhibition of RTK/PI3K/AKT/mTOR signaling in human U87 cells assessed as down regulation of HMGN2 gene expression at cytotoxic IC50 measured after 48 hrs relative to control
[32] = Inhibition of RTK/PI3K/AKT/mTOR signaling in human U87 cells assessed as down regulation of MBIP gene expression at cytotoxic IC50 measured after 48 hrs relative to control

## CC(=O)C(=NNc1ccccc1C#N)C(C)=O
[1]
  log2FC: 0.621
[2]
  log2FC: 0.663
[3]
  log2FC: 1.08
[4]
  log2FC: -0.636
[5]
  log2FC: -0.697
[6]
  log2FC: -1
[7]
  log2FC: -0.635
[8]
  log2FC: -1.21
[9]
  log2FC: -0.483
[10]
  log2FC: -0.744
[11]
  log2FC: -1.16
[12]
  log2FC: -0.549
[13]
  log2FC: -0.689
[14]
  log2FC: -1.55
[15]
  log2FC: -0.798
[16]
  log2FC: 1.17
[17]
  log2FC: -0.831
[18]
  log2FC: -0.648
[19]
  log2FC: -0.419
[20]
  log2FC: -0.522
[21]
  log2FC: 1.73
[22]
  log2FC: -0.753
[23]
  log2FC: 0.651
[24]
  log2FC: -1.09
[25]
  log2FC: 0.846
[26]
  log2FC: -1.29
[27]
  log2FC: -0.829
[28]
  log2FC: 0.731
[29]
  log2FC: 1.44
[30]
  log2FC: -1.15
[31]
  log2FC: -0.97
[32]
  log2FC: -1.15
